Reference: publication PMC8390530
Where two headings read alike, the source gives them in different places. These are yes or no findings as the source states them, for the method shown. Some results given as binding are weak or reduced against the parent protein; the word gives no strength.

Protein sequences, listed by entry. Tags and fused reporters are not part of them.
UniProt P17919: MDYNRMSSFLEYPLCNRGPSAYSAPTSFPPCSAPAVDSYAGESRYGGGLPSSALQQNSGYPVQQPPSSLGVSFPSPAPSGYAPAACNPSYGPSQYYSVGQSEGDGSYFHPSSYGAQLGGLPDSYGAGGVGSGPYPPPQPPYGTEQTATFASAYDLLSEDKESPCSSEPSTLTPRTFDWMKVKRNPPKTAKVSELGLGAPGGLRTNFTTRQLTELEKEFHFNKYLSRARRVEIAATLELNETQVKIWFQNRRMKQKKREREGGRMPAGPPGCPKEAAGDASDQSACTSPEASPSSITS
UniProt P09022: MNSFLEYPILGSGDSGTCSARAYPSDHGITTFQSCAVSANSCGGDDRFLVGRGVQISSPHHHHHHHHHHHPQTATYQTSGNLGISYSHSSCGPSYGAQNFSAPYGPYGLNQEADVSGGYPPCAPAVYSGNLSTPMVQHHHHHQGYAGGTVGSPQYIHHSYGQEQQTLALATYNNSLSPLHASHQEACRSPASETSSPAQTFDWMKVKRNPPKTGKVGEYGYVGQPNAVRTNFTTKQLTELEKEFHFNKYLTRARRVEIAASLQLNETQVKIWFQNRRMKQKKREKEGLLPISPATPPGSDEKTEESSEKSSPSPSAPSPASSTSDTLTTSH

Assays:
Test in all cases: native gel or EMSA; in vitro-translated proteins (2 ul reticulocyte lysate with the desired combination) with 32P-labelled Msgn1-P2 oligonucleotide in PPH binding buffer (10 mM Tris-Cl pH 7.5, 75 mM NaCl, 1 mM EDTA, 6% glycerol, 3 mM spermidine, 1 mM DTT, poly(dIdC)), 30 min on ice, 5% acrylamide gel in 0.5x TBE; the protein complexes are seen only as bound to the labelled DNA
PBX1A [1] = biological target: T1, PBX1A (UniProt P41778)
T1 sequence: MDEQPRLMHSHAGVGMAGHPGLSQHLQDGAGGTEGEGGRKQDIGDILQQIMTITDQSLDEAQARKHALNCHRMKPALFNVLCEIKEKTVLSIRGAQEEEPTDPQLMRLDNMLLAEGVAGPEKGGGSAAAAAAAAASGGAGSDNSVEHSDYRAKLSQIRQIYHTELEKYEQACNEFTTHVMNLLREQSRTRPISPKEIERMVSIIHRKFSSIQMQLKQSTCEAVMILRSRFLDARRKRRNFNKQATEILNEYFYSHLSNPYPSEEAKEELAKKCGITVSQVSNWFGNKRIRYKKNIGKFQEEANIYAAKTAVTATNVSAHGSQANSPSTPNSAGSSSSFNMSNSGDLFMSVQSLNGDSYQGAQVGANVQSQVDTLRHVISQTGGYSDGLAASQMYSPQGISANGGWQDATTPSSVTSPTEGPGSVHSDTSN

PBX1B [2] = biological target: T2, PBX1B (UniProt P41778)
T2 sequence: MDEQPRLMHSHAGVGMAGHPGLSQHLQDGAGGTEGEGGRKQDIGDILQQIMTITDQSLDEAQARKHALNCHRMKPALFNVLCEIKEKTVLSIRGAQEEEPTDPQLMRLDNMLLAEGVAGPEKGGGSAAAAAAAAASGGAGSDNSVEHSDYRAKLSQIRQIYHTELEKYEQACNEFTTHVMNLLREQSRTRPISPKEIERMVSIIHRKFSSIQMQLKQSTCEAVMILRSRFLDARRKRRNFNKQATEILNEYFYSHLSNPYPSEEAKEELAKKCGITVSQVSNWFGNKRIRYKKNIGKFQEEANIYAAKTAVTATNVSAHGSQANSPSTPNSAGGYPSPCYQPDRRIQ

PBX2 [3] = biological target: T3, PBX2 (UniProt O35984)
T3 sequence: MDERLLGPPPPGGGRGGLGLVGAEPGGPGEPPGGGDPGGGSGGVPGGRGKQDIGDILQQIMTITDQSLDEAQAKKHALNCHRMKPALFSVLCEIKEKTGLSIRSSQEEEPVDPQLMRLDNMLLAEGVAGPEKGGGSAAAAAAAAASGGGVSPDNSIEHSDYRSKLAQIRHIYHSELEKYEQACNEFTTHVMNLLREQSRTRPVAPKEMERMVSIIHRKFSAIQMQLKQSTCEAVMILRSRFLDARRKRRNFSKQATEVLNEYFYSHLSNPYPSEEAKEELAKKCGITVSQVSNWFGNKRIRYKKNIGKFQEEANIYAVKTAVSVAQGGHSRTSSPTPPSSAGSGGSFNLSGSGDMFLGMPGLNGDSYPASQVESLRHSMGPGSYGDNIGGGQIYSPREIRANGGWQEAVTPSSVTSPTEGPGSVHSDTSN

PBX3A [4] = biological target: T4, PBX3A (UniProt O35317)
T4 sequence: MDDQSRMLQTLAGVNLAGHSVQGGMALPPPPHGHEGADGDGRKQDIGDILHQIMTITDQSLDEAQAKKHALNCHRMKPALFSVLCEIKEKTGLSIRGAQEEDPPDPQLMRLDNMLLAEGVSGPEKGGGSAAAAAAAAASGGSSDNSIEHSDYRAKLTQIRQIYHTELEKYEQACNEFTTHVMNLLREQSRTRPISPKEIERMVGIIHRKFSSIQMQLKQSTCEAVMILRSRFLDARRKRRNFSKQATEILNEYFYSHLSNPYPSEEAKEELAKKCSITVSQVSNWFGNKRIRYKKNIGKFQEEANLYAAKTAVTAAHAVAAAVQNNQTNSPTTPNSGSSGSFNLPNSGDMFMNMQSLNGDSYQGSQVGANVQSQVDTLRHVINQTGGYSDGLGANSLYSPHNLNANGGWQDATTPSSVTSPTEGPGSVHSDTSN

PBX1A [5] = biological target: T1, PBX1A; remark: listed apart in the source
PBX1B [6] = biological target: T2, PBX1B; remark: listed apart in the source
PBX2 [7] = biological target: T3, PBX2; remark: listed apart in the source
PBX3A [8] = biological target: T4, PBX3A; remark: listed apart in the source

Measured: binding

HOXB1 (from UniProt P17919 1-297)
binds: PBX1A [1] | PBX1B [2] | PBX2 [3] | PBX3A [4]

HOXA1 (from UniProt P09022 1-331)
binds: PBX1A [1] | PBX1B [2] | PBX2 [3] | PBX3A [4]

B1: PREP1 (protein, UniProt O70477 1-436)
chain: MMATQTLSIDSYQDGQQMQVVTELKTEQDPNCSDPDAEGVSPPPIESQTPMDADKQAIYRHPLFPLLALLFEKCEQSTQGSEGTTSASFDVDIENFVRKQEKDGKPFFCEDPETDNLMVKAIQVLRIHLLELEKVNELCKDFCSRYIACLKTKMNSETLLSGEPGSPYSPVQSQQIQSAITGTLSPQGIVVPASALQQGNVTMATVAGGTVYQPVTVVTPQGQVVTQALSPGTIRIQNSQLQLQLNQDLSILHQEDGSSKNKRGVLPKHATNVMRSWLFQHIGHPYPTEDEKKQIAAQTNLTLLQVNNWFINARRRILQPMLDSSCSETPKTKKKPAQNRPVQRFWPDSLASGVAQATPSELAMSEGAVVTITTPVNMNVDSLQSLSSDGATLAVQQVMMAGQSEDESVDSTEDEGGALAPTHISGLVLENSDSLQ
binds: PBX1A [5] | PBX1B [6] | PBX2 [7] | PBX3A [8]

B2: MEIS2 (protein, UniProt P97367 1-477)
chain: MAQRYDELPHYGGMDGVGVPASMYGDPHAPRPIPPVHHLNHGPPLHATQHYGAHAPHPNVMPASMGSAVNDALKRDKDAIYGHPLFPLLALVFEKCELATCTPREPGVAGGDVCSSDSFNEDIAVFAKQVRAEKPLFSSNPELDNLMIQAIQVLRFHLLELEKVHELCDNFCHRYISCLKGKMPIDLVIDERDGSSKSDHEELSGSSTNLADHNPSSWRDHDDATSTHSAGTPGPSSGGHASQSGDNSSEQGDGLDNSVASPGTGDDDDPDKDKKRQKKRGIFPKVATNIMRAWLFQHLTHPYPSEEQKKQLAQDTGLTILQVNNWFINARRRIVQPMIDQSNRAGFLLDPSVSQGAAYSPEGQPMGSFVLDGQQHMGIRPAGLQSMPGDYVSQGGPMGMGMAQPSYTPPQMTPHPTQLRHGPPMHSYLPSHPHHPAMVMHGGPPTHPGMTMSAQSPTMLNSVDPNVGGQVMDIHAQ
binds: PBX1A [5] | PBX1B [6] | PBX2 [7] | PBX3A [8]
